From US20080171718A1, “Methods and Compositions for Treating Cancer Using BCL-2 Antisense Oligomers, Tyrosine Kinase Inhibitors, and Chemotherapeutic Agents” (priority 2006, published 2008)
“Also recorded” adds a separate entry of the source. At least one compound was matched to its structure with a doubt left.

System: A549 human lung cancer model
Experiment: Tumor growth delay in A549 human lung cancer model in SCID mice
Format: in vivo
Procedure: Genasense® (G3139 by Genta, Bcl-2 inhibitor, also referred to in the Figures as “OBL”), Abraxane® (by Abraxis, paclitaxel), and Taxol® (by Bristol Myers Squibb, paclitaxel) were submitted for evaluation in combination with tyrosine kinase inhibitors against an A549 human lung cancer model in severe combined immune deficient (SCID) mice. Ten treatment groups having 10 mice per group were analyzed for tumor growth delay. G3139, Abraxane, and Taxol were administered via intravenous (IV) injection, and tyrosine kinase inhibitors were administered via oral gavage (PO).
The mice were injected with 100 μl tumor cells subcutaneously (SC). […] On the 15th day, treatment cycles of 5 days on and 2 days off began for a series of 3 cycles. During treatment, the mice were weighed twice daily. Tumor volume estimation (mm^3) was made in accordance with the formula (a^2×b/2), where “a” is the smallest diameter and “b” is the largest diameter. All procedures were completed in accordance with established animal care protocols.
Subconfluent cells were harvested by using 0.23% trypsin-EDTA (HyClone, Logan, Utah) and were counted using the trypan blue assay technique. Cells (99% viability) were re-suspended at the concentration of 10×10^6 cells/100 μl of sterile saline. […]

Q: What does the source list for `CCN(CC)CCNC(=O)c1c(C)[nH]c(/C=C2\C(=O)Nc3ccc(F)cc32)c1C` [Sutent, sunitinib]?
A: effect of the tyrosine kinase inhibitor in triplet therapy with Bcl-2 antisense and cytotoxic chemotherapeutic (comparison, interaction) (A549 model, triplet with Genasense and Taxol/Abraxane): more effective in the triplet therapy than Gleevec; also recorded: unexpectedly enhanced interaction; tumor growth / tumor growth inhibition compared to the negative control (tumor volume versus days post implantation) (FIG. 1-3, single agent, SC A549 tumors, 3 cycles of 5 days on/2 days off from day 15, Taxol/Abraxane 13.4 mg/kg IV day 1, Gleevec 100 mg/kg, Sutent/Nexavar 40 mg/kg PO daily): only minor growth inhibition
